Measurements: patent US10545073B2, “Method and instrument for extracting a component from a sample” (priority 2016, dated 2020)

assay: SPME extraction with HLB-PAN coated sampling instrument from spiked phosphate buffer, 15 septa puncture samplings, LC-MS/MS; conditions: pH = 7.2, 1M phosphate buffer saline spiked at 30 ng/mL; 2 minute extraction, vortex agitation; over 15 septa puncture events

In order of falling ng extracted:
1. CN[C@H]1CC[C@@H](c2ccc(Cl)c(Cl)c2)c2ccccc21 [Sertraline]  12 ng
2. CNCCC(Oc1ccc(C(F)(F)F)cc1)c1ccccc1 (stereo not drawn) [Fluoxetine]  10 ng
3. Fc1ccc([C@@H]2CCNC[C@H]2COc2ccc3c(c2)OCO3)cc1 [Paroxetine]  7 ng
4. CN1C(=O)CN=C(c2ccccc2)c2cc(Cl)ccc21 [Diazepam]  4 ng
5. COc1ccc2c3c1O[C@H]1[C@@H](O)C=C[C@H]4[C@@H](C2)N(C)CC[C@@]341 [Codeine]  1 ng
6. CC(C)(C)NCC(O)c1ccc(O)c(CO)c1 (stereo not drawn) [Salbutamol]  0.1 ng
